According to the supplement of paper PMC10338343:
± gives the standard deviation. The list shows a part of the results, in another mix than the full data. The uncertainty is large for many entries.

Tested on: MIWI (PIWIL1) piRISC loaded with L1MC piRNA (30 nt)
Test: pre-steady-state target cleavage rate (min^-1); MIWI and MILI are mouse PIWI proteins and EfPiwi is from a freshwater sponge; tags in brackets are library labels; higher = faster piRNA-guided slicing of the target
Conditions: guide: L1MC piRNA 5'p-UAACUAAAUACUAUGCAAGCUGUAGGUCCU
How it was run: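 With or without 500 nM GTSF1 partner protein, 1 nM active affinity-purified piRISC carrying one synthetic guide was mixed with 0.1 nM transcribed, DNA-blocked target RNA library in HEPES–potassium acetate buffer at 33 °C for 0–8 or 0–960 min. Uncleaved targets were sequenced and normalised to depth and to weakly complementary targets, three trials were pooled, and k3 was capped at 0.0001 min^-1. The pre-steady-state cleavage rate came from a burst-and-steady-state fit.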

[1] = auxiliary factor: 500 nM mouse GTSF1
[2] = auxiliary factor: none (no GTSF1)

Row | Sequence | pre-steady-state target cleavage rate [1] | pre-steady-state target cleavage rate [2]
1 | UGGACCUUCUGCUUGCAUAGUAUUUAGUUA | 1.3 ± 0.066 | 0.0534 ± 0.0096
2 | AGGACCAACAGCUUGCAUUGUAUUUAGUUA | 0.923 ± 0.044 | 0.0356 ± 0.0086
3 | UGGACCUACAGCUUGCAUAGGUAUUUAGUUA | 0.00335 ± 0.0047 | 0.000965 ± 0.0054
4 | AGGAGCUACAGCUUGCAUAGUAUUUAGUUA | 1.42 ± 0.055 | 0.0984 ± 0.016
5 | UCCACCUAGCAGCUUGCAUAGUAUUUAGUUA | 0.833 ± 0.057 | 0.0454 ± 0.0087
6 | ACGACCUACUGCUUGCAUAGUAUUUAGUUA | 1.51 ± 0.054 | 0.0792 ± 0.013
7 | AGCUCCUACAGCUUGCAUAGUAUUUAGUAA | 1.01 ± 0.069 | 0.0506 ± 0.011
8 | UGGACCUACAUCUUGCAUAGUAUUUAGUUA | 1.38 ± 0.043 | 0.0737 ± 0.012
9 | AGCACCUACACCUUGCAUAGUAUUUAGUUA | 0.739 ± 0.074 | 0.0408 ± 0.0062
10 | ACCUCCUACAGCUUGCAUAGUAUUUAGAAA | 0.54 ± 0.061 | 0.00602 ± 0.0029
11 | UGGACCUACAGCUUGCAUAGUAUUUACUUA | 0.24 ± 0.021 | 0.0361 ± 0.0058
12 | AGGACCUACAGCUUGCUAUAGUAUUUAGUUA | 0.137 ± 0.037 | 0.00178 ± 0.0043
13 | UCGACCUACAGCUUGGUUAGUAUUUACAAA | 0.0826 ± 0.02 | 0.00101 ± 0.0065
14 | AGGACUCUACAGCUUGCAUAGUAUUUAGUUA | 1.28 ± 0.069 | 0.0617 ± 0.011
15 | UGGACCUACAGCUUGCAUACUAUUUUCAAA | 0.0881 ± 0.021 | 0.00168 ± 0.0034
16 | UGGACCUACAGCUUGCAUAGUAUUUUAGUUA | 1.38 ± 0.079 | 0.0467 ± 0.012
17 | UCGACCUACAGCGUGCAUAGUAUUUAGUUA | 1.73 ± 0.072 | 0.0576 ± 0.0085
18 | UCCACGUACAGCUUGGAUAGUAUUUAGUUA | 1.14 ± 0.065 | 0.0509 ± 0.0081
19 | ACCACCUACAGCUUGCAUAGUAUUUAGUUA | 1.16 ± 0.056 | 0.0927 ± 0.017
20 | UGGAGCUACAGCAUGCAUAGUAUUUAGUUA | 1.14 ± 0.042 | 0.0429 ± 0.0078
21 | UGGACCUACAGCUUGCAUAGUAUUUAGCUUA | 0.316 ± 0.023 | 0.0288 ± 0.0059
22 | UGGACCUACUGCUUGCAUUGUAUUUAGUUA | 0.868 ± 0.041 | 0.0358 ± 0.009
23 | UCGACCUACAGGUUGCAUAGUAUUUACAAA | 0.183 ± 0.026 | 0.00187 ± 0.0033
24 | AGGACCUACAACUUGCAUAGUAUUUAGUUA | 1.08 ± 0.031 | 0.0712 ± 0.011
25 | UCCACCUACAGCUACGAUAGUAUUUAGUUA | 0.121 ± 0.016 | 0.000346 ± 0.0072
26 | UGGACCUACAGCUUGCAUAGCAUUUAGUUA | 0.379 ± 0.025 | 0.0275 ± 0.0061
27 | AGGACCUACAGCUUGCAUAGUAGUUUAGUUA | 0.47 ± 0.036 | 0.0209 ± 0.006
28 | UGGACCUACAGCUUGCAUACGUAUUUAGUUA | 0.00248 ± 0.0055 | 0.00051 ± 0.013

Row | Sequence | pre-steady-state target cleavage rate [1] | pre-steady-state target cleavage rate [2]
29 | AGGACCUACAGCUGGCAUAGUAUUUAGUUA | 1.29 ± 0.057 | 0.0579 ± 0.011
30 | UCGUCGUACAGCUUGCAUAGUAUUUAGUUA | 1.31 ± 0.067 | 0.0685 ± 0.012
31 | UGGACCUAGCAGCUUGCAUAGUAUUUAGUUA | 1.59 ± 0.13 | 0.0734 ± 0.014
32 | UCGACCUACAGCUUGCAUAGUUAUUUAGUUA | 0.0764 ± 0.016 | 0.00495 ± 0.0031
33 | UGCACCUAGAGCUUGCAUAGUAUUUAGUUA | 1.2 ± 0.25 | 0.0155 ± 0.0045
34 | UCCACCUACAGCAUGCAUAGUAUUUAGAUA | 0.423 ± 0.045 | 0.00605 ± 0.0027
35 | AGCACCUACAGCAUGCAUAGUAUUUAGUUA | 1.02 ± 0.13 | 0.0663 ± 0.022
36 | AGGAGCUACAGCAUGCAUAGUAUUUAGUUA | 1.37 ± 0.058 | 0.0574 ± 0.01
37 | UGGACCUACAGCUUCGAUAGUAUUUUCAAA | 0.0028 ± 0.0032 | 0.000553 ± 0.0087
38 | UCCACCUAGAGCUUGCAUAGUAUUUAGUUA | 0.593 ± 0.06 | 0.0282 ± 0.0051
39 | UCCACCUACAUCUUGCAUAGUAUUUAGUUA | 0.85 ± 0.036 | 0.0567 ± 0.0096
40 | UGGACCUACAGCUUGCAUAGUAUUAAGAUA | 0.174 ± 0.028 | 0.00558 ± 0.0024
41 | UCGACCUACUGCUUGCAUAGUAUUUAGUAA | 0.797 ± 0.036 | 0.0434 ± 0.0074
42 | UCGACCUACAGCUUGCAUAGUAUUAGUUA | 0.346 ± 0.053 | 0.00219 ± 0.0029
43 | UCGACGUACAGCUUGCAUAGUAUUUAGAAA | 0.288 ± 0.026 | 0.0106 ± 0.0026
44 | UGGACCUACAGCUUGCAUAGUAUUAGUUA | 0.172 ± 0.032 | 0.00299 ± 0.0019
45 | UCCUGGAUGUCGAUGCAUAGUAUUUAGGUUA | 0.00244 ± 0.0049 | 0.000828 ± 0.01
46 | UGGACUCUACAGCUUGCAUAGUAUUUAGUUA | 1.4 ± 0.066 | 0.0856 ± 0.017
47 | AGGACCUACAUGCUUGCAUAGUAUUUAGUUA | 0.767 ± 0.056 | 0.0684 ± 0.013
48 | UCGACCUACAGCUUGCAUAGUAUUAUGUAA | 0.228 ± 0.057 | 0.00175 ± 0.0031
49 | UGGACCUACAGGAAGCAUAGUAUUUAGUUA | 0.994 ± 0.094 | 0.00926 ± 0.0024
50 | UCCACGUACAGCUUGCUUAGUAUUUAGUUA | 1.31 ± 0.058 | 0.0408 ± 0.0091
51 | UCGACCGUACAGCUUGCAUAGUAUUUAGUUA | 1.26 ± 0.046 | 0.0719 ± 0.013
52 | ACGACCUACAGCUUGCAAAGUAUUUAGUUA | 1.56 ± 0.057 | 0.0528 ± 0.011
53 | AGGACCUACGCUUGCAUAGUAUUUAGUUA | 1.27 ± 0.066 | 0.0719 ± 0.013
54 | UGGACCUACAGCUUGGUAAGUAUUUUCAAA | 0.000219 ± 0.014 | 0.000203 ± 0.0089
55 | AGGACCUAAGCUUGCAUAGUAUUUAGUUA | 1.05 ± 0.071 | 0.0685 ± 0.013

Two records drawn at random from the list so far, as already listed:
Row | Sequence | pre-steady-state target cleavage rate [1] | pre-steady-state target cleavage rate [2]
39 | UCCACCUACAUCUUGCAUAGUAUUUAGUUA | 0.85 ± 0.036 | 0.0567 ± 0.0096
51 | UCGACCGUACAGCUUGCAUAGUAUUUAGUUA | 1.26 ± 0.046 | 0.0719 ± 0.013
